In article PMC10229581:
No constants are given. Whether binding was seen depends on the method and setting. In cells and extracts the contact can be indirect. A yes stands for co-enrichment or nearness to the bait. Other partners may have been found.

By UniProt entry, the sequences of proteins in these tests, tags left out. Residues count along the entry.
UniProt Q9Z2G6, residues 22-790: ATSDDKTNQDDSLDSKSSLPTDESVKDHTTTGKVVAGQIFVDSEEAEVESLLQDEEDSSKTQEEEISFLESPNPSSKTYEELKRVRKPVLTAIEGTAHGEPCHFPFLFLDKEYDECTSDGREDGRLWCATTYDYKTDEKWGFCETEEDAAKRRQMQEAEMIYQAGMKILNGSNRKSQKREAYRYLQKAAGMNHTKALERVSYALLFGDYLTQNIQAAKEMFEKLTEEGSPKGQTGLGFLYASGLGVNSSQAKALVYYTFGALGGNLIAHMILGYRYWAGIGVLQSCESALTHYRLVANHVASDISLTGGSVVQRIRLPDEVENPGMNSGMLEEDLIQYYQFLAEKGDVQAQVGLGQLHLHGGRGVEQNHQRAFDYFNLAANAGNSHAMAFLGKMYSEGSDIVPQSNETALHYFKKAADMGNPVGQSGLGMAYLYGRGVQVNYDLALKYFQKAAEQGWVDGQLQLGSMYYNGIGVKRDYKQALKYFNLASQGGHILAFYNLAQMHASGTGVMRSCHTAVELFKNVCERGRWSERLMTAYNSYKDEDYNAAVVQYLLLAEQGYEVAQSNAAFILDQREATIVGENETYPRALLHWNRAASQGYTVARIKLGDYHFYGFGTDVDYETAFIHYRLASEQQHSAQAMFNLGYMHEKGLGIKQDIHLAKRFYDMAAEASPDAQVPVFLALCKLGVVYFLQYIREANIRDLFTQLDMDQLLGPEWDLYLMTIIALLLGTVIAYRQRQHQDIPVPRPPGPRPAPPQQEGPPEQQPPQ
UniProt P08113, residues 22-802: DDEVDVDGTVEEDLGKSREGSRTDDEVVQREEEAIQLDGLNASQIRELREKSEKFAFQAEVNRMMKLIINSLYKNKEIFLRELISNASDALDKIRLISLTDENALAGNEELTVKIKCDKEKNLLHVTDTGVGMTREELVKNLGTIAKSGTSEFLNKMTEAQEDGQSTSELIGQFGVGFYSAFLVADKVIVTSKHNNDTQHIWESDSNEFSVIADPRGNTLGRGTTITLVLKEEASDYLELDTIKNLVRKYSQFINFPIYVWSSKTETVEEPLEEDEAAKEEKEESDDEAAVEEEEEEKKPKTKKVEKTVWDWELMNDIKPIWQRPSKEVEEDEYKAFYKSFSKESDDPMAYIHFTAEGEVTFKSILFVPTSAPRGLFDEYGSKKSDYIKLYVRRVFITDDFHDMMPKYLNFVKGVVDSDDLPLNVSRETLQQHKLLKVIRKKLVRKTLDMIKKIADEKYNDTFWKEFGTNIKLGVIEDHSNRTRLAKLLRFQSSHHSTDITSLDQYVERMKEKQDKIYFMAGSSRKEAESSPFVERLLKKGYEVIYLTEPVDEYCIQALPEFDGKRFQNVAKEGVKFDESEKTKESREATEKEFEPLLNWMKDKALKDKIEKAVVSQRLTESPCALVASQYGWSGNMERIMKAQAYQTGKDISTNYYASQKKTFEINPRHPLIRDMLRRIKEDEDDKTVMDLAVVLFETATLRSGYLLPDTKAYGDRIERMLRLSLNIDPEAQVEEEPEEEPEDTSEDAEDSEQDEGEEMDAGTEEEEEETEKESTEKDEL
UniProt Q06890, residues 22-448: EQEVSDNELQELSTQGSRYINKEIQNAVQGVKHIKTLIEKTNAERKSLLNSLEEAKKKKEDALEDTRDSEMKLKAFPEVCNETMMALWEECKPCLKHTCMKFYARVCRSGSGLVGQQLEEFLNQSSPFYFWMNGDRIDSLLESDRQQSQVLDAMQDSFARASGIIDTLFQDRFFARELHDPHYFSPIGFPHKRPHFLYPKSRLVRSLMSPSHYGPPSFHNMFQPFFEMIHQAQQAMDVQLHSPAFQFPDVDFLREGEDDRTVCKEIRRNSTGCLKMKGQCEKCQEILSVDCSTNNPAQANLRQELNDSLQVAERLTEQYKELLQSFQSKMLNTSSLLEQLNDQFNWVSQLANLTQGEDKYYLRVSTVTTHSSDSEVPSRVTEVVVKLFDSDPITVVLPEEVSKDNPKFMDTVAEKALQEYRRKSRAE
UniProt O08638: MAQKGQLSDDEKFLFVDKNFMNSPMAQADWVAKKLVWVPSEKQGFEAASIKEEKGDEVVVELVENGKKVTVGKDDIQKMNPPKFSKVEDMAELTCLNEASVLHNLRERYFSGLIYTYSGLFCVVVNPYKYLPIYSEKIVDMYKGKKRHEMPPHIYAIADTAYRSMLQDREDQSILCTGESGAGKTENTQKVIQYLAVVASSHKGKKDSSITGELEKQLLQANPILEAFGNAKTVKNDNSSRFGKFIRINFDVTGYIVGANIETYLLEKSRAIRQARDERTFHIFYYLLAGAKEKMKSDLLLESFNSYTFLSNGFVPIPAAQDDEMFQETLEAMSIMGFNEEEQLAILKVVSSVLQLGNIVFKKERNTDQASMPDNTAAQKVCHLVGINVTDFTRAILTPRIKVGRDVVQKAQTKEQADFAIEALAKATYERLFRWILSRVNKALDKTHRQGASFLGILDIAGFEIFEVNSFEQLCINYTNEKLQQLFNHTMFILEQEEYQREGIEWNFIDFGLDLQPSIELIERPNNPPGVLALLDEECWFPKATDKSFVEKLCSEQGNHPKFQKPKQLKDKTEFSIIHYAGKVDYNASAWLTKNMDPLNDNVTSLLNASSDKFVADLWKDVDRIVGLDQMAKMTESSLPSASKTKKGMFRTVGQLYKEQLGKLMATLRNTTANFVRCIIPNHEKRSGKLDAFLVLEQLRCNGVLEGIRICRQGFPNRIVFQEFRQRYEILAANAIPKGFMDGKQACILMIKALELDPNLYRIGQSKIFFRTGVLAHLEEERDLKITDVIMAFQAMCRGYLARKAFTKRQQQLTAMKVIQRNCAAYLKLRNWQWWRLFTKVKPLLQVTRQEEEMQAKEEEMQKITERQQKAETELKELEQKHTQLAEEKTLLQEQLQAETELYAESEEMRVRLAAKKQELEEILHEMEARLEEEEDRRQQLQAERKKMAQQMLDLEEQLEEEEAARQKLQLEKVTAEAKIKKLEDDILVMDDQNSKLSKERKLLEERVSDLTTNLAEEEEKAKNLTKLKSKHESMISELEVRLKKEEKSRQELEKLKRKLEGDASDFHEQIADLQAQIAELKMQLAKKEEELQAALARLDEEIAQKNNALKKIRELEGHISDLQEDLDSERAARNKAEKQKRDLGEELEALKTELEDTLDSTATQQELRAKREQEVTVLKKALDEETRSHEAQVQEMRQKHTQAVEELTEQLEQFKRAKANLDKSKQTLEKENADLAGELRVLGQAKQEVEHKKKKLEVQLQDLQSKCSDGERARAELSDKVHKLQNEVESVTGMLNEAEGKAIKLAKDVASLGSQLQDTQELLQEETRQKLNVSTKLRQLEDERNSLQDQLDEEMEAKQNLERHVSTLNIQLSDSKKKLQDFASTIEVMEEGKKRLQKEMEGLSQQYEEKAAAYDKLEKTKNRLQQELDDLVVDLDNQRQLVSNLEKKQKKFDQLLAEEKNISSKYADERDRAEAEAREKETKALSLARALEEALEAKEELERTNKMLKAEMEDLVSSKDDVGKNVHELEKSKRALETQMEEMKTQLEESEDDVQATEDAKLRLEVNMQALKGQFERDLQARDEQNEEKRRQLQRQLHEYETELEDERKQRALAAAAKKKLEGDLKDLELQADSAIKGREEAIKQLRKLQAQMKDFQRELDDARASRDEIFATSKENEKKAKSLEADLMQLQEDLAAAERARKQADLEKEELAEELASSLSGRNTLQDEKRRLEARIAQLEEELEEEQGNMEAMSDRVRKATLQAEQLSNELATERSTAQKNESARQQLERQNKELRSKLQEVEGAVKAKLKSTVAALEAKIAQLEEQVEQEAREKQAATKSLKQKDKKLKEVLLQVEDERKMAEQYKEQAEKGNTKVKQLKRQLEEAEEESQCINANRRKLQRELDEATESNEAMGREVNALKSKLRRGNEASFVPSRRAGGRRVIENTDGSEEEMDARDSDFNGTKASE
UniProt P20029, residues 20-655: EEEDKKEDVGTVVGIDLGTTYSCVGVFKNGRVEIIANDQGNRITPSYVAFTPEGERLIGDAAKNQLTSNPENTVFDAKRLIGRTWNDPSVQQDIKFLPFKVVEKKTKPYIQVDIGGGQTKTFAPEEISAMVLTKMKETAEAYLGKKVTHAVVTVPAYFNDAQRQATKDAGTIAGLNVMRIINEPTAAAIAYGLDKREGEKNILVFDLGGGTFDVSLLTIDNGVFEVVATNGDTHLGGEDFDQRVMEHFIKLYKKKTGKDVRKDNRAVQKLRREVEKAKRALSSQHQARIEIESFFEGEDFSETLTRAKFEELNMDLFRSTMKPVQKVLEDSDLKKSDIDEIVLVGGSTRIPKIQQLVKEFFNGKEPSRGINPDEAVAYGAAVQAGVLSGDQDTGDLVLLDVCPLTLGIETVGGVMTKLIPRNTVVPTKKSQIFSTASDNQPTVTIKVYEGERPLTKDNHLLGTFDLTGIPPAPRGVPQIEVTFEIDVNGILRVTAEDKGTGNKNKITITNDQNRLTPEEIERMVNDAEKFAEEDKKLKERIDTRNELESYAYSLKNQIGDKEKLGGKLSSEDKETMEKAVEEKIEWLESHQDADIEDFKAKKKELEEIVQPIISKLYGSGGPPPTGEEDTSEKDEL
UniProt P49817: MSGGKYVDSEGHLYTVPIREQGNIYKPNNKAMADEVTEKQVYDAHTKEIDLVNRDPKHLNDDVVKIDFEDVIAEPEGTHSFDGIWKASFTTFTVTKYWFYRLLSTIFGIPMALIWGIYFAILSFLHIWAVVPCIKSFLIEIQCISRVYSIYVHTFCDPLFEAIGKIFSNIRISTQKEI

B1: lipoprotein lipase (enzyme, UniProt P11152 28-474)
chain: ADAGRDFSDIESKFALRTPEDTAEDTCHLIPGLADSVSNCHFNHSSKTFVVIHGWTVTGMYESWVPKLVAALYKREPDSNVIVVDWLYRAQQHYPVSAGYTKLVGNDVARFINWMEEEFNYPLDNVHLLGYSLGAHAAGVAGSLTNKKVNRITGLDPAGPNFEYAEAPSRLSPDDADFVDVLHTFTRGSPGRSIGIQKPVGHVDIYPNGGTFQPGCNIGEAIRVIAERGLGDVDQLVKCSHERSIHLFIDSLLNEENPSKAYRCNSKEAFEKGLCLSCRKNRCNNLGYEINKVRAKRSSKMYLKTRSQMPYKVFHYQVKIHFSGTEDGKQHNQAFEISLYGTVAESENIPFTLPEVSTNKTYSFLIYTEVDIGELLMMKLKWISDSYFSWPDWWSSPSFVIERIRVKAGETQKKVIFCAREKVSHLQKGKDSAVFVKCHDKSLKKSG
B2: ribophorin 1 (protein, UniProt Q91YQ5 26-608)
chain: SSEAPPLVNEDVKRTVDLSSHLAKVTAEVVLVHPGGGSTSRASSFVLALEPELESRLAHLGVQIKGEDEEDNNLEVRETKIKGKSGRFFTVKLPVALDPGSKISVVVETVYTHVLHPYPTQITQSEKQFVVFEGNHYFYSPYPTKTQTMRVKLASRNVESYTKLGNPSRSEDVLDYGPFKDIPAYSQDTFKVHYENNSPFLTITSMTRVIEVSHWGNIAVEENVDLKHTGAVLKGPFSRYDYQRQPDSGISSIRSFKTILPAAAQDVYYRDEIGNVSTSHLLILDDSVEMEIRPRFPLFGGWKTHYIVGYNLPSYEYLYNLGDQYALKMRFVDHVFDEQVIDSLTVKIILPEGAKNIQVDSPYDISRAPDELHYTYLDTFGRPVIVAYKKNLVEQHIQDIVVHYTFNKVLMLQEPLLVVAAFYILFFTVIIYVRLDFSITKDPAAEARMKVACITEQVLTLVNKRLGLYRHFDETVNRYKQSRDISTLNSGKKSLETEHKAVTSEIAVLQSRLKTEGSDLCDRVSEMQKLDAQVKELVLKSAVEAERLVAGKLKKDTYLENEKLSSGKRQELVTKIDHILDAL
B3: Gephyrin (protein, UniProt Q8BUV3 1-769)
chain: MATEGMILTNHDHQIRVGVLTVSDSCFRNLAEDRSGINLKDLVQDPSLLGGTISAYKIVPDEIEEIKETLIDWCDEKELNLILTTGGTGFAPRDVTPEATKEVIEREAPGMALAMLMGSLNVTPLGMLSRPVCGIRGKTLIINLPGSKKGSQECFQFILPALPHAIDLLRDAIVKVKEVHDELEDLPSPPPPLSPPPTTSPHKQTEDKGVQCEEEEEEKKDSGVASTEDSSSSHITAAALAAKIPDSIISRGVQVLPRDTASLSTTPSESPRAQATSRLSTASCPTPKQIRRPDESKGVASRVGSLKARLPSCSSTYSVSEVQSRCSSKENILRASHSAVDITKVARRHRMSPFPLTSMDKAFITVLEMTPVLGTEIINYRDGMGRVLAQDVYAKDNLPPFPASVKDGYAVRAADGPGDRFIIGESQAGEQPTQTVMPGQVMRVTTGAPIPCGADAVVQVEDTELIRESDDGTEELEVRILVQARPGQDIRPIGHDIKRGECVLAKGTHMGPSEIGLLATVGVTEVEVNKFPVVAVMSTGNELLNPEDDLLPGKIRDSNRSTLLATIQEHGYPTINLGIVGDNPDDLLNALNEGISRADVIITSGGVSMGEKDYLKQVLDIDLHAQIHFGRVFMKPGLPTTFATLDIDGVRKIIFALPGNPVSAVVTCNLFVVPALRKMQGILDPRPTIIKARLSCDVKLDPRPEYHRCILTWHHQEPLPWAQSTGNQMSSRLMSMRSANGLLMLPPKTEQYVELHKGEVVDVMVIGRL
B4: procollagen-Lysine,2-oxoglutarate 5-dioxygenase 3 (enzyme, UniProt Q9R0E1 28-741)
chain: SDRPRGANAVNPDKLLVITVATAETEGYRRFLQSAEFFNYTVRTLGLGQEWRGGDVARTVGGGQKVRWLKKEMEKYADQKDMIIMFVDSYDVILASSPTELLKKFVQSGSHLLFSAESFCWPEWGLAEQYPEVGMGKRFLNSGGFIGFAPTIHQIVRQWNYKDDDDDQLFYTQLYLDPGLREKLKLSLDHKSRIFQNLNGALDEVILKFDQNRVRIRNVAYDTLPVVVHGNGPTKLQLNYLGNYVPNGWTPQGGCGFCNQTLRTLPGGQPPPRVLLAVFVEQPTPFLPRFLQRLLLLDYPPDRISLFLHNSEVYHEPHIADAWPQLQDHFSAVKLVGPEEALSAGEARDMAMDSCRQNPECEFYFSLDADAVLTNPETLRVLIEQNRKVIAPMLSRHGKLWSNFWGALSPNEYYARSEDYVELVQRKRVGVWNVPYISQAYVIRGETLRTELPQKEVFSSSDTDPDMAFCKSVRDKGIFLHLSNQHEFGRLLATSRYDTDHLHPDLWQIFDNPVDWREQYIHENYSRALDGEGLVEQPCPDVYWFPLLTEQMCDELVEEMEHYGQWSGGRHEDSRLAGGYENVPTVDIHMKQVGYEDQWLQLLRTYVGPMTEYLFPGYHTKTRAVMNFVVRYRPDEQPSLRPHHDSSTFTLNVALNHKGVDYEGGGCRFLRYDCRISSPRKGWALLHPGRLTHYHEGLPTTRGTRYIMVSFVDP
B5: GPX3 (enzyme, UniProt P46412 25-226)
chain: QEKSKTDCHGGMSGTIYEYGALTIDGEEYIPFKQYAGKYILFVNVASYUGLTDQYLELNALQEELGPFGLVILGFPSNQFGKQEPGENSEILPSLKYVRPGGGFVPNFQLFEKGDVNGEKEQKFYTFLKNSCPPTAELLGSPGRLFWEPMKIHDIRWNFEKFLVGPDGIPVMRWYHRTTVSNVKMDILSYMRRQAALSARGK
B6: CCPG1 (protein, UniProt Q640L3 1-753)
chain: MSESSSDSDSSCGWTVINHEGSDIEIVNSATASDNCGLTLECSLVEQEELPVLYVGHGGEESSANNTSSVGETMLSSMRETKSAAEVEEAPSPEDNVYFGTTSDDSDIVTLEPPKLEEMGNQEVTIQEAPSSDDLNMGSSSSSQYAFCQPEPVFSSQPSDEESSSDDTSHEPSPAPRRRRNRKKTVSISESEEPPLAEPEDEPSKEPSKRHFSRGLNKCVILALVIAVSMGFGHFYGTIQIQKQLVRKTHEDELDGVKGYLSQRKQEQESFLDFKSLKENLERCWTVTESEKITFETQKKNLAAENQYLRISLEKEEQALSSLQEELRQLREQIRLLEDKGTSTQLVRENQVLKQYLEVEKQKTDSFLREREMLLEEARMLKRDLEREQLTAMALRAELEQFIPGQAQSRAESPSVQTEEKEVGLLQQRLAELEQKLIFEQQRSDLWERLYVEAKDQHGKQETDGRKRGSRGSHRAKSKSKETFLGTVKETFDAMKNSTKEFVRHHKEKIKQAKEAVKENLKKFSDSVKSTFRHFKDTTKNIFDEKGSKRFRAPKEAATEKTRTAYSYSSYSQQEAPNQNQNCRRPSAQRDGGREKPSHSEEIRKNANSYTYKAKSDCRGTHSTRRVCSGMFECAGQEAISPVNKASPVRMNDFKQLIHWYLLNELETFHHWKELDQFISPFFPNGVFRHDQQLFADFVDDVKGYLKSIKEYRVEDGNLEKLDGCIYRHFGHVFALPFGPRSVYIKPCYYNSF

molecular target: SEL1L (mouse (endogenous in BAT and differentiated adipocytes)) (UniProt Q9Z2G6); assay: affinity purification with mass spectrometry; IP with homemade SEL1L antibody from BAT lysate of Hrd1^Ucp1Cre mice (WT and Sel1L^Ucp1Cre BAT and IgG as controls); 1% Triton X-100, 150 mM NaCl, 25 mM Tris-HCl pH 7.5, 4 °C; exploratory, without replication

binding, binds:
HSP90B1 (GRP94) (from UniProt P08113 22-802), B1

molecular target: T1, lipoprotein lipase (mouse (endogenous in WAT, BAT and differentiated adipocytes)) (UniProt P11152); assay: affinity purification with mass spectrometry; IP with LPL antibody from pooled WAT lysates of WT, Sel1L^AdipCre, Atg7^AdipCre and DKO mice (IgG as control); Cluster 1 hits enriched in WT, Cluster 2 hits enriched in DKO; 1% Triton X-100, 150 mM NaCl, 25 mM Tris-HCl pH 7.5, 4 °C; exploratory, without replication
T1 sequence: B1 chain

binding, binds:
HSP90B1 (GRP94) (from UniProt P08113 22-802), Clusterin (from UniProt Q06890 22-448), Myosin-11 (from UniProt O08638 1-1972), HSPA5/BiP (from UniProt P20029 20-655), Caveolin 1 (from UniProt P49817 1-178), B2, B3, B4, B5, B6
